# In the supplement of paper PMC12067093, “Discovery and optimisation of a covalent ligand for TRIM25 and its application to targeted protein ubiquitination” (Chemical Science, 2025):
# The list shows a part of the results.
# Compound: Cc1cc(ccc1-c1ccccc1)C(=O)N1CCCN(CC1)C(=O)CCl [compound 10]
# Experiment: probe-labelled cysteine peptide fold change vs DMSO (competition) (log2 fold change); higher = less target engagement (more negative = stronger competition)
# Conditions: THP-1, incubation time: 4 h
# 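Also: competitive profiling in live THP-1 cells: cysteine peptides tagged with an iodoacetamide desthiobiotin (IA-DTB) probe, intensity after compound treatment relative to DMSO-treated cells.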
Target,probe-labelled cysteine peptide fold change (10 µM),probe-labelled cysteine peptide fold change (50 µM)
PDLIM5_Q96HC4_73_GCTGSLNMTLQR (UniProt Q96HC4),0.125,0.0393
PCK2_Q16822_151_AVDERFPGCMQGR (UniProt Q16822),-0.169,-0.508
PBRM1_Q86U86_1233_CAVLSFK (UniProt Q86U86),-0.307,-0.164
PCNT_O95613_2059_VLEDCQLPK (UniProt O95613),-0.0417,-0.33
PDS5A_Q29RF7_430_YCLHGEAGK (UniProt Q29RF7),0.0514,0.0931
PDS5B_Q9NTI5_946_LPLEYMAICALCAK (UniProt Q9NTI5),0.129,0.149
PDE12_Q6L8Q7_268+277_ELESVCVVEAGPGTCTFDHR (UniProt Q6L8Q7),0.0485,0.0303
PDHA1_P08559_261_VDGMDILCVR (UniProt P08559),0.0657,0.13
PDPR_Q8NCN5_357_LVNCPETFTPDMR (UniProt Q8NCN5),-0.0989,-0.113
PEBP1_P30086_133_CDEPILSNR (UniProt P30086),-0.0287,0.154
PDE12_Q6L8Q7_530_CNMSLTHFFK (UniProt Q6L8Q7),0.117,0.0617
PDIA5_Q14554_456_IACAAVDCVK (UniProt Q14554),-0.104,-0.338
PCNT_O95613_2278_ADTSLPQTQGPGLLCSPGVSAAALALQWAESPPADDHHVQR (UniProt O95613),-0.0716,0.29
PCF11_O94913_102_NLVATFICVFEK (UniProt O94913),-0.0805,0.262
PDCD6IP_Q8WUM4_691_CSDIVFAR (UniProt Q8WUM4),-0.00307,-0.0695
PCNT_O95613_2446_TQEVPTACPDWR (UniProt O95613),-0.19,-0.35
PCNA_P12004_81_CAGNEDIITLR (UniProt P12004),0.0309,0.182
PDPR_Q8NCN5_653_AVDVLSELSYAPMTPDHFPSLFCK (UniProt Q8NCN5),0.213,-0.0693
PAXX_Q9BUH6_9_MDPLSPPLCTLPPGPEPPR (UniProt Q9BUH6),-0.208,-0.123
PDCD11_Q14690_1754_ALECLPSK (UniProt Q14690),0.00256,0.153
PCNT_O95613_430_CLEDLEFK (UniProt O95613),-0.147,-0.19
PDHA1_P08559_273_FAAAYCR (UniProt P08559),0.0385,-0.0209
PCK2_Q16822_559_VLDWICR (UniProt Q16822),0.0851,0.0116
PDS5B_Q9NTI5_732_YAIHCIHAIFSSK (UniProt Q9NTI5),-0.000746,0.245
PDLIM1_O00151_286_HRHPECYVCTDCGTNLK (UniProt O00151),0.164,0.136

Target,probe-labelled cysteine peptide fold change (10 µM),probe-labelled cysteine peptide fold change (50 µM)
PDLIM5_Q96HC4_479_FFAPECGR (UniProt Q96HC4),-0.0149,-0.153
PDHX_O00330_307_STVPHAYATADCDLGAVLK (UniProt O00330),-0.233,-0.0607
PDCD11_Q14690_694_VLCLSQSEGR (UniProt Q14690),0.181,0.0308
PDK1_Q15118_240_RLCDLYYINSPELELEELNAK (UniProt Q15118),0.295,0.281
PARP8_Q8N3A8_332_TDDVCVTK (UniProt Q8N3A8),-0.15,0.0356
PDS5A_Q29RF7_327_DSDLATQNRPLWQCFLGR (UniProt Q29RF7),0.0727,0.239
PDS5B_Q9NTI5_943_LPLEYMAICALCAK (UniProt Q9NTI5),0.581,0.468
PCMT1_P22061_43_CNPYMDSPQSIGFQATISAPHMHAYALELLFDQLHEGAK (UniProt P22061),-0.0496,-0.164
PARP8_Q8N3A8_27_DCLFADFR (UniProt Q8N3A8),0.0942,0.203
PDS5B_Q9NTI5_333_FNDIHVPIRLECVK (UniProt Q9NTI5),0.0355,-0.279
PCNT_O95613_1119_DQVLSLSHEIEECRSELEVLQQR (UniProt O95613),0.112,0.146
PDCD6IP_Q8WUM4_250_HCIMQANAEYHQSILAK (UniProt Q8WUM4),0.136,-0.313
PCCB_P05166_269_AFENDVDALCNLR (UniProt P05166),-0.156,-0.546
PCBP1_Q15365_293_GYWASLDASTQTTHELTIPNNLIGCIIGR (UniProt Q15365),0.167,0.267
PDF_Q9HBH1_172_LVTFPEGCESVAGFLACVPR (UniProt Q9HBH1),0.0175,0.519
PDLIM7_Q9NR12_388_AFYMEEGVPYCERDYEK (UniProt Q9NR12),-0.134,-0.663
PBRM1_Q86U86_1228_EVFLSNLEETCPMTCILGK (UniProt Q86U86),-0.179,0.0923
PBRM1_Q86U86_450_NQEYETLDHLECDLNLMFENAK (UniProt Q86U86),-0.043,-0.0946
PDIA5_Q14554_451_IACAAVDCVK (UniProt Q14554),-0.117,-0.18
PDS5A_Q29RF7_486_CLYYLYASLDPNAVK (UniProt Q29RF7),-0.015,-0.0122
PDXDC1_Q6P996_573_SCLYVGMASDNVDAAELVETIAATAR (UniProt Q6P996),0.0729,0.0799
PDIA4_P13667_91+94_DTVLLEFYAPWCGHCK (UniProt P13667),-0.227,-1.17
PDLIM5_Q96HC4_449_SWHPEEFNCAHCK (UniProt Q96HC4),0.0465,-0.346
PDCD2L_Q9BRP1_80_LLHVFACACPGCSTGGAR (UniProt Q9BRP1),0.0718,-0.203
PDIA3_P30101_244_FIQENIFGICPHMTEDNK (UniProt P30101),-0.147,-0.104

Target,probe-labelled cysteine peptide fold change (10 µM),probe-labelled cysteine peptide fold change (50 µM)
PDIA3_P30101_57_ISDTGSAGLMLVEFFAPWCGHCK (UniProt P30101),-0.169,-0.449
PCK2_Q16822_417_EPCAHPNSR (UniProt Q16822),-0.0707,0.384
PDE3B_Q13370_475_RPHQEFGISSQGCYLNGPFNSNLLTIPK (UniProt Q13370),-0.322,-0.854
PDCL3_Q9H2J4_127_QGIPLCALINQHLSGLAR (UniProt Q9H2J4),0.279,0.314
PDE12_Q6L8Q7_348_ELTGYNADVICLQEVDR (UniProt Q6L8Q7),0.195,0.326
PDHA1_P08559_261_GDFIPGLRVDGMDILCVR (UniProt P08559),-0.0624,-0.427
PDHB_P11177_161+169_GPNGASAGVAAQHSQCFAAWYGHCPGLK (UniProt P11177),-0.208,-0.713
PCNT_O95613_70_EDSALCGGGDICK (UniProt O95613),-0.178,-0.306
PAXX_Q9BUH6_180_CPGESLINPGFK (UniProt Q9BUH6),-0.392,-0.56
PDIA6_Q15084_291+297_RTCEEHQLCVVAVLPHILDTGAAGR (UniProt Q15084),-0.134,-0.282
PDLIM1_O00151_283+286+289_HRHPECYVCTDCGTNLK (UniProt O00151),-0.042,-0.245
PDIA6_Q15084_291+297_TCEEHQLCVVAVLPHILDTGAAGR (UniProt Q15084),-0.0901,-0.383
PDPK1_O15530_181_KIGSFDETCTR (UniProt O15530),-0.0166,-0.0773
PDCL_Q13371_291_NSATCHSEDSDLEID (UniProt Q13371),-0.381,-0.41
PDCD2L_Q9BRP1_260_IAACQEQILR (UniProt Q9BRP1),0.209,0.22
PCGF5_Q86SE9_53_TCIVQHFEDSNDCPR (UniProt Q86SE9),0.388,0.504
PDS5A_Q29RF7_1079+1084_LYTVCDVALCVINSK (UniProt Q29RF7),0.0416,-0.00974
PDLIM1_O00151_286_HPECYVCTDCGTNLK (UniProt O00151),0.0863,-0.0146
PDHB_P11177_263_EGVECEVINMR (UniProt P11177),0.0305,-0.104
PCF11_O94913_1518_NELQEPCDSPK (UniProt O94913),-0.142,-0.22
PDCD2_Q16342_281_DIPDCPCGAK (UniProt Q16342),-0.0904,-0.265
PCBD2_Q9H0N5_109_VQITLTSHDCGELTK (UniProt Q9H0N5),0.176,0.164
PCK2_Q16822_63_LCQPEGIHICDGTEAENTATLTLLEQQGLIR (UniProt Q16822),-0.371,0.0104
